Test results taken from article PMC8195427.
Results are given in words; binding and its absence hold for the method and conditions named.

The chains behind the UniProt entries cited, without tags or fusion partners. Where a name states a change or a piece, a line headed by the entry shows the natural chain unless it says otherwise.
UniProt Q9SND4: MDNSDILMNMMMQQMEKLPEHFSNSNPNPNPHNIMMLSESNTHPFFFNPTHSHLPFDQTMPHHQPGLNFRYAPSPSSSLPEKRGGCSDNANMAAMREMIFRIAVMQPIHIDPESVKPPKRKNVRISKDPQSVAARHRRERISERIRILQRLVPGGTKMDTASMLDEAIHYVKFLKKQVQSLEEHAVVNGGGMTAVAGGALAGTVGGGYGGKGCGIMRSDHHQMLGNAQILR

Target: T1, PHYTOCHROME … FACTOR 4 (PIF4), two-hybrid bait in pGBT9 (Arabidopsis thaliana) (UniProt Q8W2F3)
T1 sequence: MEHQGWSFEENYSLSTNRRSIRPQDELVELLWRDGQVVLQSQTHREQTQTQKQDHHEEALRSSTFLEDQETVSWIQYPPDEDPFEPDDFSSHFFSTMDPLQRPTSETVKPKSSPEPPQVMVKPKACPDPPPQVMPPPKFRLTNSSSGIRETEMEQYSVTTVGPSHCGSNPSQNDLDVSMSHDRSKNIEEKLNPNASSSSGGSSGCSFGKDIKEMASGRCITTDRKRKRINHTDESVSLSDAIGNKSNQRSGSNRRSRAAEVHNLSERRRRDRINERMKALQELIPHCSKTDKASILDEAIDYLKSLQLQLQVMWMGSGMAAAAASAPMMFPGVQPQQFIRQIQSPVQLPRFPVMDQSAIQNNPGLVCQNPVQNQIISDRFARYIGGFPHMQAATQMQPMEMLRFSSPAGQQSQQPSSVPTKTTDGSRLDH
Test: two-hybrid; PIF4 as bait in pGBT9, HEC2 or mHEC2 as preys in pGADT7; yeast strain Y187, selected on -Leu, -Trp medium; beta-galactosidase assay

## dimerization-defective mutant HEC2 (mHEC2), two-hybrid prey in pGADT7 (from UniProt Q9SND4)
  binding: no binding
